No constants are given. Whether binding was seen depends on the method and setting. Some binding calls cover weakened binding; strength is not graded here.

By UniProt entry, the sequences of proteins in these tests, tags left out. Residues count along the entry.
UniProt P29317, residues 24-976: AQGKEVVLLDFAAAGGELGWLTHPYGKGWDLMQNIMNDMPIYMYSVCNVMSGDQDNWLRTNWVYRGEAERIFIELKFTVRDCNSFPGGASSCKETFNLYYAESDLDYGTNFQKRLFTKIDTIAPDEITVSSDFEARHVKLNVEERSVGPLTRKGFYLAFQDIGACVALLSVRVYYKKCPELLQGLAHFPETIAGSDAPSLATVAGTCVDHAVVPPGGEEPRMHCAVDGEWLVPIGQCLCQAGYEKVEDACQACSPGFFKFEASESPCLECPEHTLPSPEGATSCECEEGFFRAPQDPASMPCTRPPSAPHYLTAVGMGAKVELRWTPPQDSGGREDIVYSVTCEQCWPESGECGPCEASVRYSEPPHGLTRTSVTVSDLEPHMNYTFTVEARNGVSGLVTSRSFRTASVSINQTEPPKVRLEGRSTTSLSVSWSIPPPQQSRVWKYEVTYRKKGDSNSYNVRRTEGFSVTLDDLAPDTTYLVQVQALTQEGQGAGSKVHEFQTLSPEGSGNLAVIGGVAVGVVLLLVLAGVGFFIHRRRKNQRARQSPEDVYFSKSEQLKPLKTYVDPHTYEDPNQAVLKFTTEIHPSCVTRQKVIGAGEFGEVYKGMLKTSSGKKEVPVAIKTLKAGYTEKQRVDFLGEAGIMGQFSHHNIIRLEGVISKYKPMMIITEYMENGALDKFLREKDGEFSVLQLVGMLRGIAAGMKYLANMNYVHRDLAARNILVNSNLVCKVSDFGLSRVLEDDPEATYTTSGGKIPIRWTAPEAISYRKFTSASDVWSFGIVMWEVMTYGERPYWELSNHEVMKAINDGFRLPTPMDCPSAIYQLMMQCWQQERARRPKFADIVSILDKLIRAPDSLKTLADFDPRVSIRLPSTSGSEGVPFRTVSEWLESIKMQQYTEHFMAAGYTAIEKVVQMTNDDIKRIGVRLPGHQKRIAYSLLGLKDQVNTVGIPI

The assay deals with EphA2-eYFP (UniProt P29317). Briefly: fluorescence intensity fluctuation (FIF) spectrometry; augmented FIF on the high-intensity puncta of EphA2-eYFP found by the SLIC algorithm, pixels of at least four puncta combined into clusters; HEK293T cells treated with the ligands.

As for “EphA2-eYFP (from UniProt P29317 24-976) (receptor)”, the binding result was “binds”.

The values above are taken from publication PMC9512837.
